From paper doi:10.1101/840157
Results are given in words; binding and its absence hold for the method and conditions named. In cells and extracts the contact can be indirect. Some binding calls cover weakened binding; strength is not graded here. Where a sequence is shown, tags or fusion partners need not be part of it.

Chains of the proteins cited; added tags and fusions are not shown.
UniProt P38903: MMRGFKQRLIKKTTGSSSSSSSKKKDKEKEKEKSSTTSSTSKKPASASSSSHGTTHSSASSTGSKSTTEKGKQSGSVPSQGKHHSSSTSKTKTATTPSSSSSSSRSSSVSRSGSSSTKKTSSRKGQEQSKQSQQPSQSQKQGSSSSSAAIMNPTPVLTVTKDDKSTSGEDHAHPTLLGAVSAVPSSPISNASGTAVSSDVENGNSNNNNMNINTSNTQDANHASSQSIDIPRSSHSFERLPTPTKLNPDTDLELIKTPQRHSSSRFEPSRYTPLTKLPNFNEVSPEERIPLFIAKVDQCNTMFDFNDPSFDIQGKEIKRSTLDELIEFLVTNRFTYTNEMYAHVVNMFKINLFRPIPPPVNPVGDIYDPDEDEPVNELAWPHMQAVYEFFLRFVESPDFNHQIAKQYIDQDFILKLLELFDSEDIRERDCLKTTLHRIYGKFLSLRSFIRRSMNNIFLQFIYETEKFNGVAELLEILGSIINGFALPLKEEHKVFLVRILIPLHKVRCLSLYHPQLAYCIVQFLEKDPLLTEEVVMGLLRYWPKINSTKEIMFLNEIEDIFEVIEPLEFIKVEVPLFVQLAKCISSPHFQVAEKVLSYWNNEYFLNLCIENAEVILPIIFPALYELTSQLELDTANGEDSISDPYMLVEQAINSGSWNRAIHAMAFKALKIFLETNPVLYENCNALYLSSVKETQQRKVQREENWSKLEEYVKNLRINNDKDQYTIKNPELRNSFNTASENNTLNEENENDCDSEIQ

Experiments:
[1] = molecular target: T1, Recombinant His7-V5-tagged Sgo1 (shugoshin), wild type, unSUMOylated (S. cerevisiae (budding yeast)) (UniProt Q08490); experiment: pull-down
T1 sequence: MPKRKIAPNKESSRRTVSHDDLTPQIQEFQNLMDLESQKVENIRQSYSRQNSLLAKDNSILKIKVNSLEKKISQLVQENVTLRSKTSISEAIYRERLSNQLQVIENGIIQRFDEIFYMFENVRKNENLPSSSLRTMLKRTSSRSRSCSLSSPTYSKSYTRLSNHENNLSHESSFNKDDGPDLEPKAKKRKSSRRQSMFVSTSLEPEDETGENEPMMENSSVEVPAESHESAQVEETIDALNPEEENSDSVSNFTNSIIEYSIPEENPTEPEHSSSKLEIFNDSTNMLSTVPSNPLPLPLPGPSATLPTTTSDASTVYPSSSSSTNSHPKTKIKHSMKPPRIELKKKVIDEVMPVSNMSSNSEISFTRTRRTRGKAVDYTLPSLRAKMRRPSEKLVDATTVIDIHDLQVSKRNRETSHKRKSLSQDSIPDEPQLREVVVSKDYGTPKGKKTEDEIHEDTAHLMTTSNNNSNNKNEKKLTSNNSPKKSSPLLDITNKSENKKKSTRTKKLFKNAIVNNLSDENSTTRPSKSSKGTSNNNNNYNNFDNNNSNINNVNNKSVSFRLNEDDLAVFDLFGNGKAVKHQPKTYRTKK

[2] = molecular target: Rts1-9Myc (regulatory subunit of PP2A-Rts1) (S. cerevisiae (budding yeast)) (UniProt P38903); experiment: pull-down

## Rts1-9Myc (regulatory subunit of PP2A-Rts1) (from UniProt P38903 1-757)
[1]
  binding: binds

B1: Recombinant His7-V5-tagged Sgo1 (shugoshin), wild type, unSUMOylated (protein, UniProt Q08490 1-590)
chain: MPKRKIAPNKESSRRTVSHDDLTPQIQEFQNLMDLESQKVENIRQSYSRQNSLLAKDNSILKIKVNSLEKKISQLVQENVTLRSKTSISEAIYRERLSNQLQVIENGIIQRFDEIFYMFENVRKNENLPSSSLRTMLKRTSSRSRSCSLSSPTYSKSYTRLSNHENNLSHESSFNKDDGPDLEPKAKKRKSSRRQSMFVSTSLEPEDETGENEPMMENSSVEVPAESHESAQVEETIDALNPEEENSDSVSNFTNSIIEYSIPEENPTEPEHSSSKLEIFNDSTNMLSTVPSNPLPLPLPGPSATLPTTTSDASTVYPSSSSSTNSHPKTKIKHSMKPPRIELKKKVIDEVMPVSNMSSNSEISFTRTRRTRGKAVDYTLPSLRAKMRRPSEKLVDATTVIDIHDLQVSKRNRETSHKRKSLSQDSIPDEPQLREVVVSKDYGTPKGKKTEDEIHEDTAHLMTTSNNNSNNKNEKKLTSNNSPKKSSPLLDITNKSENKKKSTRTKKLFKNAIVNNLSDENSTTRPSKSSKGTSNNNNNYNNFDNNNSNINNVNNKSVSFRLNEDDLAVFDLFGNGKAVKHQPKTYRTKK
[2]
  binding: binds
